Results from patent US20110301095A1 (SANFORD BURNHAM MEDICAL RESEARCH INSTITUTE CALIFORNIA, published 2011).
These are yes or no findings as the source states them, for the method shown. Binding seen in cells or lysates may run through a third protein. A result given as binding can be weak or reduced; the word gives no strength. Sequences can lack the tags named with a protein.

Biological target: Flag-HIF-1α translated in vitro
Test: in vitro pull-down: 35S-labelled HIF-1α on nickel beads coated with His-FoxA2, phosphor-imager (FIG. 3H)

- binding: binds
B1: His-FoxA2 (mouse FoxA2 in pET15b, His-tagged fusion protein purified from bacteria) (protein, UniProt P35583 1-459, looked up, not shown: small tags and cut ends)
chain: MLGAVKMEGHEPSDWSSYYAEPEGYSSVSNMNAGLGMNGMNTYMSMSAAAMGGGSGNMSAGSMNMSSYVGAGMSPSLAGMSPGAGAMAGMSGSAGAAGVAGMGPHLSPSLSPLGGQAAGAMGGLAPYANMNSMSPMYGQAGLSRARDPKTYRRSYTHAKPPYSYISLITMAIQQSPNKMLTLSEIYQWIMDLFPFYRQNQQRWQNSIRHSLSFNDCFLKVPRSPDKPGKGSFWTLHPDSGNMFENGCYLRRQKRFKCEKQLALKEAAGAASSGGKKTAPGSQASQAQLGEAAGSASETPAGTESPHSSASPCQEHKRGGLSELKGAPASALSPPEPAPSPGQQQQAAAHLLGPPHHPGLPPEAHLKPEHHYAFNHPFSINNLMSSEQQHHHSHHHHQPHKMDLKAYEQVMHYPGGYGSPMPGSLAMGPVTNKAGLDASPLAADTSYYQGVYSRPIMNSS
